No constants are given. Whether binding was seen depends on the method and setting. In cells and extracts the contact can be indirect. Some results given as binding are weak or reduced against the parent protein; the word gives no strength.
Molecular target: ezrin (UniProt P15311)
Test: FRET or BRET; time-domain FLIM (TCSPC) of a TMA of paraffin embedded tissue; ezrin tagged by a Cy3-conjugated antibody, PKCα by an Alexa546 antibody; FRET read as a reduction in the ezrin-Cy3 lifetime; analysis in TRI2

binding: binds
Substance: Protein kinase C α (from UniProt P17252 1-672)
